# Source: patent US20020165153
# Protein sequences, listed by entry. Tags and fused reporters are not part of them. Lines headed by an entry give the natural chain unless they say otherwise; changes in a name come on top.
# UniProt P15336: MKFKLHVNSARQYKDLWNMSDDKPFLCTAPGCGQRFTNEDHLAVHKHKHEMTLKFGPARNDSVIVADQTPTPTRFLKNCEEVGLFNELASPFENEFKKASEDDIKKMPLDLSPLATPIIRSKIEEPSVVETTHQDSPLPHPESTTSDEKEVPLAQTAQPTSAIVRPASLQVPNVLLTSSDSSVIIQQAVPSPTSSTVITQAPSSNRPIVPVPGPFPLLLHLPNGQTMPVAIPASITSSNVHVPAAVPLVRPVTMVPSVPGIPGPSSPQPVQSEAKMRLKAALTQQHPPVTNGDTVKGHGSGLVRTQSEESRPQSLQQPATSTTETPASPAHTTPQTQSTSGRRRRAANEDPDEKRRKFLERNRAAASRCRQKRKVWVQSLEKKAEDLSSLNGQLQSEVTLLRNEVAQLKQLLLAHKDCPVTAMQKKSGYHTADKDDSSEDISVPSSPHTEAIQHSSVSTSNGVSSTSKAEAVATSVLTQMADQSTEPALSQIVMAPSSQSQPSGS
# Construct, isoform or probe ends are uncertain for at least one entry. For some assays here: The comparison behind a weaker result is the experiment's own reference, which may not be listed here.
# Assays:
# [1] = target: ATF2-m2 homodimer ATF2 leucine zipper replaced by SEQ 19 (g2 L to R, g3 E to V) (UniProt P15336); assay: binding assay; conditions: only core motif of the 20 bp probe printed; only the site is given
# [2] = system: ATF2-m2/cJun wt heterodimer ATF2 leucine zipper replaced by SEQ 19 (g2 L to R, g3 E to V); assay: binding assay; conditions: in contrast to ATF2-m1 and m5; only the site is given
sequence,measurement,setting,value
TTACCTCA (double strand) [20 bp Jun/ATF2 oligonucleotide (core motif)],binding result,[1],binds more weakly
same,binding result,[2],binds
